Data as given in article doi:10.1101/2020.11.08.373522.
These are yes or no findings as the source states them, for the method shown. For some of these results: Binding seen in cells or lysates may run through a third protein. Some results given as binding are weak or reduced against the parent protein; the word gives no strength. Where a sequence is shown, tags or fusion partners need not be part of it.

Amino acid sequences for entries named in this document (tags omitted).
UniProt P06634: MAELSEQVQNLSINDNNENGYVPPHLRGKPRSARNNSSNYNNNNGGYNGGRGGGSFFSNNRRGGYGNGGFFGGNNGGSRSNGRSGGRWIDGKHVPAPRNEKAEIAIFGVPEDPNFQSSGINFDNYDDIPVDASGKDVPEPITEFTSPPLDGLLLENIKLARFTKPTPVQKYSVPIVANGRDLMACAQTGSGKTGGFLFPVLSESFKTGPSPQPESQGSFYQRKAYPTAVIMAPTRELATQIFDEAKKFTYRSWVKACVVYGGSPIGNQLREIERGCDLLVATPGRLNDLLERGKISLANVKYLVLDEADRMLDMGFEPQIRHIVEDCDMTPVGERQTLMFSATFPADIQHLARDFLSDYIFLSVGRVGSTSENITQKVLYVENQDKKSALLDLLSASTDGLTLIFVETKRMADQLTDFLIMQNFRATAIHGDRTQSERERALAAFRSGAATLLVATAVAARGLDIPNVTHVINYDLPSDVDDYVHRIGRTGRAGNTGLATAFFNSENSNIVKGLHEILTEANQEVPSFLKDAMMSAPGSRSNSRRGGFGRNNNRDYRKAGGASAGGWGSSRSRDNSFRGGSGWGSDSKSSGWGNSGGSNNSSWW

B1: Recombinant His-tagged SRP21 (protein, UniProt P32342 1-167)
chain: MSVKPIDNYITNSVRLFEVNPSQTLFSISYKPPTQKTDTKVSFRTHNSHLSLNYKFTTNKSKDVSRLLSALGPRGVSITPGKIEKIAQSKKKNNKIKESSKKIKGKSIQDIVGLATLIVNTDVEKSDPAAKKTATEPKQKANAVQNNNGNSAASKKKKNKNKGKKKR
B2: HA-tagged SRP14 (protein, UniProt P38985 1-146)
chain: MANTGCLSPGAFLSKVPEFFQTANEKHITVRLTAKRLIEHDPVEGNLEFDSTNHPDYDVSKKASEISVSSRSDREYPLLIRMSYGSHDKKTKCSTVVKASELDQFWQEYSSVFKGGMQNLIKKKKKKSKNGTISKTGKKNKVAKKN
B3: HA-tagged Sec65 (protein, UniProt P29478 1-273)
chain: MPRLEEIDDFNDIDDLDMELAELDPSLRTPIAPKITPKVVRSQDQENPAFLPGTNNNSNSNNNSSNEKEQLSFINPKTGKVERSEAISKKDLEEVKRFQVLYPCYFDINRSHKEGRRVPKELAVENPLAKTMADAVRELGILCIFEGEKCHPQDFGNPGRIRVLFKENGQLIGAATKFKGGKRQLMKAVGEYMKRHPTTIESLREIPYGPDFDNIEFKKIPRVKGFKMNEIVPLHSPFLMGHPMTKSVYETPKITAAEKSFKPPKNKYKVVRR
B4: HA-tagged SRP101 (receptor, UniProt P32916 1-621)
chain: MFDQLAVFTPQGQVLYQYNCLGKKFSEIQINSFISQLITSPVTRKESVANANTDGFDFNLLTINSEHKNSPSFNALFYLNKQPELYFVVTFAEQTLELNQETQQTLALVLKLWNSLHLSESILKNRQGQNEKNKHNYVDILQGIEDDLKKFEQYFRIKYEESIKQDHINPDNFTKNGSVPQSHNKNTKKKLRDTKGKKQSTGNVGSGRKWGRDGGMLDEMNHEDAAKLDFSSSNSHNSSQVALDSTINKDSFGDRTEGGDFLIKEIDDLLSSHKDEITSGNEAKNSGYVSTAFGFLQKHVLGNKTINESDLKSVLEKLTQQLITKNVAPEAADYLTQQVSHDLVGSKTANWTSVENTARESLTKALTQILTPGVSVDLLREIQSKRSKKDEEGKCDPYVFSIVGVNGVGKSTNLSKLAFWLLQNNFKVLIVACDTFRSGAVEQLRVHVENLAQLMDDSHVRGSKNKRGKTGNDYVELFEAGYGGSDLVTKIAKQAIKYSRDQNFDIVLMDTAGRRHNDPTLMSPLKSFADQAKPDKIIMVGEALVGTDSVQQAKNFNDAFGKGRNLDFFIISKCDTVGEMLGTMVNMVYATGIPILFVGVGQTYTDLRTLSVKWAVNTLMS

Columns and labels:
[1] = target: Recombinant Ded1-His (S. cerevisiae) (UniProt P06634); experiment: co-IP
[2] = target: Ded1 (DEAD-box RNA helicase Ded1) (S. cerevisiae (endogenous in yeast)) (UniProt P06634); experiment: co-IP

Binder | binding [1] | binding [2]
B1 | binds weakly | 
B2 |  | binds
B3 |  | binds
B4 |  | binds
